According to PMC12094035:
No constants are given. Whether binding was seen depends on the method and setting. For some assays here: Binding seen in cells or lysates may run through a third protein. Some results given as binding are weak or reduced against the parent protein; the word gives no strength. One block for each substance: values may come before it.

Key:
[1] = biological target: GCP6, in the reconstituted human γ-TuRC (human) (UniProt B2RWN4); experiment: cryo-EM structure; NEDD1-containing rec-γ-TuRC; free particles in micrographs of Aher et al. (2024), processed anew; consensus map 4.7 Å; model from AlphaFold 3 predictions fitted to the map and refined, side chains trimmed to β-carbons; both purified
[2] = biological target: GCP5-SBP-Myc quadruple mutant R213A/R228G/L256E/V258E (human) (UniProt Q96RT8); experiment: pull-down; SBP pull-down of GCP-SBP-Myc constructs on Streptavidin Sepharose from HEK293T lysate co-transfected with V5-NEDD1, 1 h at 4°C; V5 western blot; 50 mM HEPES pH 7.5, 150 mM NaCl, 1% NP-40, 0.5% sodium deoxycholate, 2 mM DTT
GCP5-SBP-Myc WT (human) = GCP5-SBP-Myc WT (human) (UniProt Q96RT8); experiment: as above
[3] = biological target: Myc-SBP-NEDD1 E598A/D602A/E605A (human) (UniProt Q8NHV4); experiment: pull-down; SBP pull-down of Myc-SBP-NEDD1 constructs on Streptavidin Sepharose from transfected HEK293T lysate, 1 h at 4°C; endogenous γ-tubulin by western blot; 50 mM Tris-HCl pH 7.5, 150 mM NaCl, 0.1% Triton X-100, 10% glycerol, 2 mM DTT
Myc-SBP-NEDD1 WT (human) = Myc-SBP-NEDD1 WT (human) (UniProt Q8NHV4); experiment: as above
[4] = biological target: Myc-SBP-NEDD1 1–634 (fishtail deletion lacking residues 635–660) (human) (UniProt Q8NHV4); experiment: as above
[5] = biological target: Myc-SBP-NEDD1 F603A/F622A (human) (UniProt Q8NHV4); experiment: as above
[6] = biological target: GCP3, in the reconstituted human γ-TuRC (human) (UniProt Q96CW5); experiment: cryo-EM structure; NEDD1-containing rec-γ-TuRC; free particles in micrographs of Aher et al. (2024), processed anew; consensus map 4.7 Å; model from AlphaFold 3 predictions fitted to the map and refined, side chains trimmed to β-carbons; both purified
[7] = biological target: GCP2, in the reconstituted human γ-TuRC (human) (UniProt Q9BSJ2); experiment: as above

Substance: N-terminally V5-tagged WT NEDD1 (from UniProt Q8NHV4-1 1-660)
binding [2]: binds | binding (GCP5-SBP-Myc WT (human)): binds

Substance: neural precursor cell expressed, developmentally downregulated 1 (NEDD1), full length, in the reconstituted human γ-TuRC (from UniProt Q8NHV4 1-660)
binding [1]: binds

Substance: GCP6, in the reconstituted human γ-TuRC (from UniProt B2RWN4 1-1811)
binding [6]: binds | binding [7]: binds

Now from value to substance:

binding [1]: binds
Substance: MZT1, in the reconstituted human γ-TuRC (from UniProt Q08AG7 1-82)

binding [3]: binds | binding (Myc-SBP-NEDD1 WT (human)): binds | binding [4]: binds | binding [5]: binds
Substance: endogenous γ-tubulin of HEK293T cells (from UniProt P23258 1-451)

binding [1]: binds
Substance: GCP5, in the reconstituted human γ-TuRC (from UniProt Q96RT8 1-1024)
